The target of test [1] is endogenous IκBα (primary CML bone marrow cells) (human (endogenous in primary CML bone marrow cells)) (UniProt P25963). Briefly: co-IP; primary CML bone marrow cells; immunoprecipitation with IκBα antibody, western blot; endogenous proteins.
The target in test [2] is myc-tag-IκBα (UniProt P25963). Briefly: co-IP; HEK293T transfected cells, in the presence of BCR-ABL; immunoprecipitation with IκBα antibody, western blot.
The target of test [3] is myc-tag-IκBα (UniProt P25963). Briefly: co-IP; HEK293T cells transfected with the indicated plasmids; lysate (150 mM NaCl, 1 mM EDTA, 50 mM HEPES pH 7.5, 1% Triton X-100, 10% glycerol) immunoprecipitated with myc-tag antibody (IκBα) overnight at 4°C, Protein A/G agarose, western blot. Background: In western blotting, separated proteins are transferred to a membrane and probed.

By UniProt entry, the sequences of proteins in these tests, tags left out.
UniProt P25963: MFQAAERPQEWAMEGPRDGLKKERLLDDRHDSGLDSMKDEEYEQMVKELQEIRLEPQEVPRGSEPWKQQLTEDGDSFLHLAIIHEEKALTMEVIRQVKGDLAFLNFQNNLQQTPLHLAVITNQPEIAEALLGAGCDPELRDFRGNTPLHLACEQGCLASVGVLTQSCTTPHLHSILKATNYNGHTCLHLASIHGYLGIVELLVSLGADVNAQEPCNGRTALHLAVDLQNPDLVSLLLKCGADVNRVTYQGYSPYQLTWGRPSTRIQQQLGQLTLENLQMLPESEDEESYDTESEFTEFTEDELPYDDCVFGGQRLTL

The values that follow come from PMC4694826.

These are yes or no findings as the source states them, for the method shown. In cells and extracts the contact can be indirect. Some entries that bind do so weakly or less than the wild type.

Take “endogenous p53 (primary CML bone marrow cells) (from UniProt P04637 1-393)”: in test [1], the binding result is recorded as “binds”.

For the molecule “p53 (HEK293T transfected cells) (from UniProt P04637 1-393)”, in the test with myc-tag-IκBα [2], the binding entry is reported as “binds”.

B1: BCR (protein, UniProt P11274 1-1271)
chain: MVDPVGFAEAWKAQFPDSEPPRMELRSVGDIEQELERCKASIRRLEQEVNQERFRMIYLQTLLAKEKKSYDRQRWGFRRAAQAPDGASEPRASASRPQPAPADGADPPPAEEPEARPDGEGSPGKARPGTARRPGAAASGERDDRGPPASVAALRSNFERIRKGHGQPGADAEKPFYVNVEFHHERGLVKVNDKEVSDRISSLGSQAMQMERKKSQHGAGSSVGDASRPPYRGRSSESSCGVDGDYEDAELNPRFLKDNLIDANGGSRPPWPPLEYQPYQSIYVGGMMEGEGKGPLLRSQSTSEQEKRLTWPRRSYSPRSFEDCGGGYTPDCSSNENLTSSEEDFSSGQSSRVSPSPTTYRMFRDKSRSPSQNSQQSFDSSSPPTPQCHKRHRHCPVVVSEATIVGVRKTGQIWPNDGEGAFHGDADGSFGTPPGYGCAADRAEEQRRHQDGLPYIDDSPSSSPHLSSKGRGSRDALVSGALESTKASELDLEKGLEMRKWVLSGILASEETYLSHLEALLLPMKPLKAAATTSQPVLTSQQIETIFFKVPELYEIHKEFYDGLFPRVQQWSHQQRVGDLFQKLASQLGVYRAFVDNYGVAMEMAEKCCQANAQFAEISENLRARSNKDAKDPTTKNSLETLLYKPVDRVTRSTLVLHDLLKHTPASHPDHPLLQDALRISQNFLSSINEEITPRRQSMTVKKGEHRQLLKDSFMVELVEGARKLRHVFLFTDLLLCTKLKKQSGGKTQQYDCKWYIPLTDLSFQMVDELEAVPNIPLVPDEELDALKIKISQIKNDIQREKRANKGSKATERLKKKLSEQESLLLLMSPSMAFRVHSRNGKSYTFLISSDYERAEWRENIREQQKKCFRSFSLTSVELQMLTNSCVKLQTVHSIPLTINKEDDESPGLYGFLNVIVHSATGFKQSSNLYCTLEVDSFGYFVNKAKTRVYRDTAEPNWNEEFEIELEGSQTLRILCYEKCYNKTKIPKEDGESTDRLMGKGQVQLDPQALQDRDWQRTVIAMNGIEVKLSVKFNSREFSLKRMPSRKQTGVFGVKIAVVTKRERSKVPYIVRQCVEEIERRGMEEVGIYRVSGVATDIQALKAAFDVNNKDVSVMMSEMDVNAIAGTLKLYFRELPEPLFTDEFYPNFAEGIALSDPVAKESCMLNLLLSLPEANLLTFLFLLDHLKRVAEKEAVNKMSLHNLATVFGPTLLRPSEKESKLPANPSQPITMTDSWSLEVMSQVQVLLYFLQLEAIPAPDSKRQSILFSTEV
For the molecule B1, the binding result in the test with myc-tag-IκBα [3] is reported as “binds”.
